Measurements as given in publication PMC11464762, “AXIN1 boosts antiviral response through IRF3 stabilization and induced phase separation” (Signal Transduction and Targeted Therapy, 2024).
Results are given in words; binding and its absence hold for the method and conditions named. Binding seen in cells or lysates may run through a third protein. Some results given as binding are weak or reduced against the parent protein; the word gives no strength. For part of these data: Tags and fused reporters may be left off the sequences shown.

The chains behind the UniProt entries cited, without tags or fusion partners. Where a name states a change or a piece, a line headed by the entry shows the natural chain unless it says otherwise.
UniProt O15169: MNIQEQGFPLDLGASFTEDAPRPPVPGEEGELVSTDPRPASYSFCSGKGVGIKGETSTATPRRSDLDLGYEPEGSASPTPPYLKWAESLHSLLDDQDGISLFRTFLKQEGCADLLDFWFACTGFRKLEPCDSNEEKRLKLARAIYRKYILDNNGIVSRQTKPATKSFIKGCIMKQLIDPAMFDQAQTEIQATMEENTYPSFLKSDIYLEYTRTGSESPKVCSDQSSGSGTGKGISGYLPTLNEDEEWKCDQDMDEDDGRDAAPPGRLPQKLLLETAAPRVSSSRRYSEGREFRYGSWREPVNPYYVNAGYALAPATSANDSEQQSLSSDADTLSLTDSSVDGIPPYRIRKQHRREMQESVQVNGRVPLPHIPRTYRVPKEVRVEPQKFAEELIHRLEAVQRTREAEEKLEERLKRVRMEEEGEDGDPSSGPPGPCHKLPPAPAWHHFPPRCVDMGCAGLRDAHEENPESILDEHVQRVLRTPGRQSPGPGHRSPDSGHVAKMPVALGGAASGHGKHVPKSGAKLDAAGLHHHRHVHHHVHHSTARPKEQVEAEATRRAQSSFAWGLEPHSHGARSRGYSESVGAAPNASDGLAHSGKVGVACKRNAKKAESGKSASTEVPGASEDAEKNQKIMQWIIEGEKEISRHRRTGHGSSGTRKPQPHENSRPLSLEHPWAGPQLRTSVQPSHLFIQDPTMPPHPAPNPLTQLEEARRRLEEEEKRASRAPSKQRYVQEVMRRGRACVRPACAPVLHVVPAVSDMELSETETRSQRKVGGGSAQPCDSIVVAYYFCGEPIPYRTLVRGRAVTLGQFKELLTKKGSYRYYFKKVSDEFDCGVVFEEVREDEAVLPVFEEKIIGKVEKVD

Experiments:
[1] = biological target: T1, IRF3 (as used in the co-immunoprecipitations of the supplementary figures) (UniProt Q14653); test: co-IP
T1 sequence: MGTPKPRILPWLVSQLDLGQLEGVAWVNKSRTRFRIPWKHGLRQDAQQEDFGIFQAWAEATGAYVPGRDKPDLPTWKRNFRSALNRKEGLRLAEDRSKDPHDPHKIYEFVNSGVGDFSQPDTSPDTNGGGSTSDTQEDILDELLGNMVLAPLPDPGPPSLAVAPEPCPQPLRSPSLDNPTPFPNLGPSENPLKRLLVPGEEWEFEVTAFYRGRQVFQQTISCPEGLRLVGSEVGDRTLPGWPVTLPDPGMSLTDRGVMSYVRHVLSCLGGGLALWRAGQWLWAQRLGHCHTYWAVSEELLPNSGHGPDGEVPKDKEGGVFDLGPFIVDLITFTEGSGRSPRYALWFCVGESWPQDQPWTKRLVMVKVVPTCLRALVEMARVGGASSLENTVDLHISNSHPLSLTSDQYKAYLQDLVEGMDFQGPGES

[2] = biological target: T2, Flag-TBK1 (TANK-binding kinase 1) (UniProt Q9UHD2); test: co-IP; HEK293T cells transfected with tagged plasmids for 36 h; lysis buffer 50 mM HEPES pH 7.4, 150 mM NaCl, 5 mM EDTA, 0.1% NP40; anti-Flag M2 or anti-c-myc agarose overnight at 4 °C; immunoblot; in some panels with Myc-AXIN1 co-expressed or 12 μM KYA1797K for 12 h
T2 sequence: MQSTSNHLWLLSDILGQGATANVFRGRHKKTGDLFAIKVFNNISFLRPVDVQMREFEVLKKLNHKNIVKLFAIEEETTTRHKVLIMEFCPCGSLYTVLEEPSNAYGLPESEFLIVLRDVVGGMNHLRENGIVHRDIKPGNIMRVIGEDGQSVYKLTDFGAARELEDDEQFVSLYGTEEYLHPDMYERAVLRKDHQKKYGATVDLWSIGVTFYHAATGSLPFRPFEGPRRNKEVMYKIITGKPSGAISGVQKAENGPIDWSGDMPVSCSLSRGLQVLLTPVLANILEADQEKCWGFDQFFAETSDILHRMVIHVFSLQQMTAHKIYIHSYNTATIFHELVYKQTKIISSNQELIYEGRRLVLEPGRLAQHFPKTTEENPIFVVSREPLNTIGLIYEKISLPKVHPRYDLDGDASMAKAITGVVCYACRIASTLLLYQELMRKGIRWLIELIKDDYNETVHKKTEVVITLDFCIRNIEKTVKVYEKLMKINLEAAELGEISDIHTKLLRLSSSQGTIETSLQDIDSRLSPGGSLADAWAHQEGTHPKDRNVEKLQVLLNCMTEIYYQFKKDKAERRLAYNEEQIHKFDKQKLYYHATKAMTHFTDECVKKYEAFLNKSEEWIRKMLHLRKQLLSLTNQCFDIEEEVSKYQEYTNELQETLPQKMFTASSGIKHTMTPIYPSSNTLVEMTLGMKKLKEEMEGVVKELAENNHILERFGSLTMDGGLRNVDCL

Flag-IRF3 = biological target: T3, Flag-IRF3 (UniProt Q14653); test: as above
T3 sequence: T1 sequence

[3] = biological target: Flag-AXIN1 (axis inhibition protein 1) (UniProt O15169); test: as above
[4] = biological target: p62 (as used in the co-immunoprecipitations of the supplementary figures) (UniProt Q13501); test: co-IP
[5] = biological target: AXIN1 (as used in the co-immunoprecipitations of the supplementary figures) (UniProt O15169); test: co-IP
Flag-p62 = Flag-p62 (UniProt Q13501); test: co-IP; HEK293T cells transfected with tagged plasmids for 36 h; lysis buffer 50 mM HEPES pH 7.4, 150 mM NaCl, 5 mM EDTA, 0.1% NP40; anti-Flag M2 or anti-c-myc agarose overnight at 4 °C; immunoblot; in some panels with Myc-AXIN1 co-expressed or 12 μM KYA1797K for 12 h
[6] = biological target: endogenous p62 (human (endogenous in THP-1)) (UniProt Q13501); test: co-IP; endogenous proteins; 8 × 10^6 THP-1 cells in 1 mL lysis buffer (50 mM HEPES pH 7.4, 150 mM NaCl, 5 mM EDTA, 0.1% NP40)

For “AXIN1 N-terminus (aa 1–211) (from UniProt O15169 1-211) (domain or fragment)”, the binding [1] was “binds”.

HA-AXIN1 (from UniProt O15169 1-862) was tested, and the binding [2] was “binds”.

In the case of Myc-AXIN1 (from UniProt O15169 1-862), the binding (Flag-IRF3) is reported as “binds”.

B1: HA-IRF3 (interferon regulatory factor 3) (protein, UniProt Q14653 1-427)
chain: T1 sequence
B1 was tested, and the binding [3] was “binds”.

B2: IRF3 (as used in the co-immunoprecipitations of the supplementary figures) (protein, UniProt Q14653 1-427)
chain: T1 sequence
With B2 the binding [4] was “binds” and the binding [5] was “binds”.

B3: Myc-IRF3 (protein, UniProt Q14653 1-427)
chain: T1 sequence
With B3 the binding (Flag-p62) was “binds”.

B4: endogenous IRF3 (protein, UniProt Q14653 1-427)
chain: T1 sequence
B4 was tested, and the binding [6] was “binds”.

B5: GFP-IRF3 (protein, UniProt Q14653 1-427)
chain: T1 sequence
For B5, the binding (Flag-p62) was “binds”.
